Reference: patent US20160264664A1
These are yes or no findings as the source states them, for the method shown. Some binding calls cover weakened binding; strength is not graded here.

Key:
[1] = molecular target: T1, mouse P2X7 (mouse) (UniProt Q9Z1M0); assay: Table A-1 'P2X7 function'; screening on mP2X7-expressing cells
T1 sequence: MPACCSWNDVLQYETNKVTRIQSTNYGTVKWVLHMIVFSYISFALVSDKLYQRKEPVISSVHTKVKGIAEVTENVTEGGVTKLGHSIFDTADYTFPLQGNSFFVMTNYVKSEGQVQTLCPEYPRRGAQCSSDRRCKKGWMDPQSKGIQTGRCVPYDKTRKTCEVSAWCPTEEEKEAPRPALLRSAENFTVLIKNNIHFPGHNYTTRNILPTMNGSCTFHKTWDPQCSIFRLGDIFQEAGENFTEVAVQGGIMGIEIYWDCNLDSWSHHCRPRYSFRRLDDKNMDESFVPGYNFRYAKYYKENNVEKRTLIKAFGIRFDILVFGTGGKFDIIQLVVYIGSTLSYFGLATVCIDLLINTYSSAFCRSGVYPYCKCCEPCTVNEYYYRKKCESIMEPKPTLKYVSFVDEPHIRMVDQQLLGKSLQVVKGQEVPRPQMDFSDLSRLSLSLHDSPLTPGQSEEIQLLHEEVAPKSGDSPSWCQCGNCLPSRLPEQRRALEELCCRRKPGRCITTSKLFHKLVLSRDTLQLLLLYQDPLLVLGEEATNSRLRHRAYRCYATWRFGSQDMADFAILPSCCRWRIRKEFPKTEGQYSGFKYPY

[2] = molecular target: T1, mouse P2X7 (mouse); assay: flow cytometry dot plots (sideward scatter against anti-myc-FITC), periplasmic extract on mixed Hek293-mP2X7 and untransfected Hek293 cells

B1: P2X7PMP5A1 (VHH)
VHH: EVQLVESGGGLVQAGGSLRLSCAASERTYSMGWFRQAPGKEREFVAGSGWDGIPTRYADSVKGRLTISRDNAKNTVSLQMSGLKPEDTAIYYCATGTSVYHYQYWGQGTQVTVSS
- binding [1]: binds
- binding [2]: binds
